Laboratory results taken from patent US20190248889A1 (Genentech, published 2019).
No constants are given. Whether binding was seen depends on the method and setting. Some results given as binding are weak or reduced against the parent protein; the word gives no strength.

Key:
[1] = biological target: T1, human LgR5 (human, UniProt O75473 22-907); assay: flow cytometry on dissociated LoVo X 1.1 xenograft tumor cells, anti-human secondary antibody conjugated to PE
T1 construct: This one molecule is used for transfected 293 cells and for endogenous LgR5 in human cells and tissues; also called leucine-rich repeat-containing G protein-coupled receptor 5
T1 sequence: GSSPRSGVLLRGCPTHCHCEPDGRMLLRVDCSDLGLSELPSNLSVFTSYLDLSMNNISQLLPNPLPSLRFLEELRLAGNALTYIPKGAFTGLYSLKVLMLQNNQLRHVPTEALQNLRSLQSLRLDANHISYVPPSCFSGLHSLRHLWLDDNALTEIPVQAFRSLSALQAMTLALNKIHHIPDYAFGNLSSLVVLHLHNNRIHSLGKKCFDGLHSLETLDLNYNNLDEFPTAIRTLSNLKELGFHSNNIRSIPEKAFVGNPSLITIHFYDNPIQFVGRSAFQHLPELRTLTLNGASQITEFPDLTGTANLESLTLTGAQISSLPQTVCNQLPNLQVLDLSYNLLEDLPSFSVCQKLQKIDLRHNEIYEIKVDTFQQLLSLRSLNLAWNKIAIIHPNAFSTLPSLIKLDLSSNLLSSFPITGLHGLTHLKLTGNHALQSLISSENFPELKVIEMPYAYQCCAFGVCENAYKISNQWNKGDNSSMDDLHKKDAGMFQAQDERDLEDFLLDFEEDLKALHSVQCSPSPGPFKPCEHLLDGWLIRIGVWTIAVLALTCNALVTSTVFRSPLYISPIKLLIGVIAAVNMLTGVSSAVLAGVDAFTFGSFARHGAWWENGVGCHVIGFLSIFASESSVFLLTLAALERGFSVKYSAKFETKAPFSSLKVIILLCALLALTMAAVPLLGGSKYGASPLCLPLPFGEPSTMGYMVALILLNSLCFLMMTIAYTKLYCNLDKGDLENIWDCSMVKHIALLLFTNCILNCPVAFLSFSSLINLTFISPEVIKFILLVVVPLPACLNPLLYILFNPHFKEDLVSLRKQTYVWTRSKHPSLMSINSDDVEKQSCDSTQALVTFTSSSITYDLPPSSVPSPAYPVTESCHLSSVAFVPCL

[2] = biological target: T1, human LgR5; assay: flow cytometry on xenograft tumor cells (figure legend)
[3] = biological target: T1, human LgR5; assay: flow cytometry on cells from LoVo X 1.1 and D5124 xenograft tumors
[4] = biological target: T1, human LgR5; assay: flow cytometry on dissociated D5124 xenograft tumor cells, anti-human secondary antibody conjugated to PE

binding [1]: binds
binding [2]: binds
binding [3]: binds
binding [4]: binds
B1: antibody huYW353 (antibody, human IgG1, kappa, V domains shown)
VH: EVQLVESGGGLVQPGGSLRLSCAASGFTFTSYSISWVRQAPGKGLEWVAEIYPPGGYTDYADSVKGRFTISADTSKNTAYLQMNSLRAEDTAVYYCAKARLFFDYWGQGTLVTVSS
VL: DIQMTQSPSSLSASVGDRVTITCRASQDVSTAVAWYQQKPGKAPKLLIYSASFLYSGVPSRFSGSGSGTDFTLTISSLQPEDFATYYCQQSYTTPPTFGQGTKVEIKR
